Reference: PubChem BioAssay AID1053208 (Peter MacCallum Cancer Centre, 2014)

Purpose: 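Genes whose silencing cuts survival of bone tumour cells only with doxorubicin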 (primary screen)
System: mouse osteosarcoma cells, early-passage culture from an engineered mouse model of fibroblastic bone tumour
Reagent: siRNA pool against mouse genes, 40 nM
Time to read-out: about 120 h (48 h before drug, then 72 h with drug)
Treatment: doxorubicin 100 nM for 72 h, roughly 30-40% inhibitory dose
Measurement: 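Luminescent ATP signal taken as viability with or without 100 nM doxorubicin for 72 h; mean of two wells set against non-targeting siRNA and turned into robust z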
Scale: viability z-score with doxorubicin: higher = more viable cells under doxorubicin; viability z-score without drug: higher = more viable cells with knock-down alone
Rule for the call: 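a pool counts as active when its viability z-score with doxorubicin is -2 or below and its z-score without drug lies between -2 and 2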
The deposit covers about 17,000 reagents; below is an unselected part. 788 of them (4.7%) were called active. 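Calls rest on z-score classes alone; an extra cut-off of viability at most 70% of control was not applied to them.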 Not all columns of the deposit are shown.

combined z-score class,viability z-score with doxorubicin,viability z-score without drug,Call,Gene
no change with or without drug,0.67,-0.51,inactive,Tenm2
no change with or without drug,0.67,0.17,inactive,Ccdc28a
no change with or without drug,0.11,0.17,inactive,Ccnb2
no change with or without drug,-0.22,-0.17,inactive,Disp2
no change with or without drug,-0.22,-1.52,inactive,Irgq
low cell count with doxorubicin only,-2.92,-1.69,active,Eif4a3
no change with or without drug,1.8,1.01,inactive,Lhcgr
no change with or without drug,0,0.84,inactive,Pqbp1
no change with or without drug,1.12,-1.52,inactive,Ndufv2
no change with or without drug,0,1.35,inactive,Slc25a28
no change with or without drug,-0.45,0.17,inactive,Cst13
no change with or without drug,-0.67,0.17,inactive,Tspyl2
no change with or without drug,1.8,-0.51,inactive,Calhm5
no change with or without drug,0,-0.51,inactive,Vhl
no change with or without drug,-0.45,1.18,inactive,Rock1
no change with or without drug,0,0.17,inactive,Ptov1
no change with or without drug,-1.01,-1.18,inactive,Or8k36
no change with or without drug,-1.01,0.51,inactive,Or4c102
no change with or without drug,-0.79,0.51,inactive,Prelid3a
no change with or without drug,-1.69,-0.84,inactive,Aspn
